According to patent US10544472B2, “Multiplexing transcription factor reporter protein assay process and system” (Attagene, Inc., priority 2014, dated 2020):
At least one structure is not confirmed: it was looked up by name or label, or the drawing left a doubt.

Test system: GRE
Assay: Multiplexed Gluc-tag reporter assay, GRE
Format: cell-based
Details: twelve response elements/Gluc tags, four assays (FIG. 8)

SMILES: C[C@@H]1C[C@H]2[C@@H]3CCC4=CC(=O)C=C[C@]4(C)[C@@]3(F)[C@@H](O)C[C@]2(C)[C@@]1(O)C(=O)CO [Dexamethasone]
- induction of GRE: specific induction
